Results are given in words; binding and its absence hold for the method and conditions named. Binding seen in cells or lysates may run through a third protein. A result given as binding can be weak or reduced; the word gives no strength. Where a sequence is shown, tags or fusion partners need not be part of it.
Biological target: T1, GFP-SR-B1 fusion protein overexpressed in HeLa cells (UniProt Q8WTV0)
T1 sequence: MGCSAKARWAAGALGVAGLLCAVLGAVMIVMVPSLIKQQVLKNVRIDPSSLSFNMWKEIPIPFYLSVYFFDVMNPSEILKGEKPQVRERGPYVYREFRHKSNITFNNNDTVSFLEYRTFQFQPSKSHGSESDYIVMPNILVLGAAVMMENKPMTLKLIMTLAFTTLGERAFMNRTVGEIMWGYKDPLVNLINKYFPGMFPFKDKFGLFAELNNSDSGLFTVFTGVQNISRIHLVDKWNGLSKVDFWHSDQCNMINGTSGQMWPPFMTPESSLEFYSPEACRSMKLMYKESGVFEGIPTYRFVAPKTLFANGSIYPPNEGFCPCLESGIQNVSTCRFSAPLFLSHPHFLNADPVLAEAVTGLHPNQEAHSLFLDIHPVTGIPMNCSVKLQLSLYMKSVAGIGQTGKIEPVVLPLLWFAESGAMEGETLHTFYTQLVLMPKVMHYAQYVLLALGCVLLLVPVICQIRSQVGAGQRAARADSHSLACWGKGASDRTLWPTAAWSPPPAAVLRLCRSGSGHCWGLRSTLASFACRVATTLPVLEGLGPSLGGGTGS
Assay: pull-down

Sequences of proteins named here, by UniProt entry; tags and fusion partners are left off. A change or cut given only in a name is not applied to a line headed by its entry.
UniProt P02647: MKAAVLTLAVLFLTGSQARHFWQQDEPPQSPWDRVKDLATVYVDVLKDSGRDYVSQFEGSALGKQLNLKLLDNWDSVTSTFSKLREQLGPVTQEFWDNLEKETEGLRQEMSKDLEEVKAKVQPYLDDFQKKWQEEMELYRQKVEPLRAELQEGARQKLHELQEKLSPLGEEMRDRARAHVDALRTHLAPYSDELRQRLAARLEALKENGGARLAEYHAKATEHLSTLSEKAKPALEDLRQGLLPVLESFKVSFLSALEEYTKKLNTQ

- binding: binds
Substance: recombinant wild-type apolipoprotein A1 (APOA1-WT), from ClearColi (from UniProt P02647)

— article doi:10.1101/2022.08.08.503162
